Measurements from publication PMC1865385.
Results are given in words; binding and its absence hold for the method and conditions named. In cells and extracts the contact can be indirect. Some binding calls cover weakened binding; strength is not graded here.

Protein sequences, listed by entry. Tags and fused reporters are not part of them.
UniProt P62258: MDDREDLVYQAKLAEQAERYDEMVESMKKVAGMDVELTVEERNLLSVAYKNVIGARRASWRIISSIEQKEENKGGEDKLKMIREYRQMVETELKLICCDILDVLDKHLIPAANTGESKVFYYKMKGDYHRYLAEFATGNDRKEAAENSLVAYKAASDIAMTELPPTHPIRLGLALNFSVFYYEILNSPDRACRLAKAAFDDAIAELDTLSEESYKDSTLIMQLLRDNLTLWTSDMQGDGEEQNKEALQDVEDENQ

Key:
[1] = molecular target: human 14-3-3ε protein (wild type) (human) (UniProt P62258); experiment: co-IP; 1 mg total protein extract of yeast expressing wild-type human 14-3-3ε, incubated at 30°C for 30 min with 100 μM R18 peptide; immunoprecipitation with anti-14-3-3ε antibody, blot with anti-Ras2 antibody
[2] = molecular target: human 14-3-3ε protein (wild type) (human) (UniProt P62258); experiment: co-IP; 1 mg total protein extract of yeast expressing wild-type human 14-3-3ε, incubated at 30°C for 30 min in the absence of R18; immunoprecipitation with anti-14-3-3ε antibody, blot with anti-Ras2 antibody

B1: yeast Ras2 protein (protein, UniProt P01120 1-322)
chain: MPLNKSNIREYKLVVVGGGGVGKSALTIQLTQSHFVDEYDPTIEDSYRKQVVIDDEVSILDILDTAGQEEYSAMREQYMRNGEGFLLVYSITSKSSLDELMTYYQQILRVKDTDYVPIVVVGNKSDLENEKQVSYQDGLNMAKQMNAPFLETSAKQAINVEEAFYTLARLVRDEGGKYNKTLTENDNSKQTSQDTKGSGANSVPRNSGGHRKMSNAANGKNVNSSTTVVNARNASIESKTGLAGNQATNGKTQTDRTNIDNSTGQAGQANAQSANTVNNRVNNNSKAGQVSNAKQARKQQAAPGGNTSEASKSGSGGCCIIS
binding [1]: no binding (condition: with 100 μM of R18 peptide) | binding [2]: binds
